Measured values from patent publication US4703107A, “Water-soluble acylated derivatives of peptides or amino acids, their preparation and their use” (priority 1983, dated 1987).
Not every detail of the peptide structures is certain; ends, links or a residue may be inferred. Where a SMILES comes first, the peptide text is derived from it. The star is where a group is joined. Doxorubicin(3'-N) = COc1cccc2c1C(=O)c1c(O)c3c(c(O)c1C2=O)C[C@@](O)(C(=O)CO)C[C@@H]3O[C@H]1C[C@H](N*)[C@H](O)[C@H](C)O1; dGluconoyl = O=C([C@H](O)[C@@H](O)[C@H](O)[C@H](O)CO)*

Amino acid sequences for entries named in this document (tags omitted). Residues count along the entry.
UniProt P00747, 97-580 partner limits assumed, species assumed: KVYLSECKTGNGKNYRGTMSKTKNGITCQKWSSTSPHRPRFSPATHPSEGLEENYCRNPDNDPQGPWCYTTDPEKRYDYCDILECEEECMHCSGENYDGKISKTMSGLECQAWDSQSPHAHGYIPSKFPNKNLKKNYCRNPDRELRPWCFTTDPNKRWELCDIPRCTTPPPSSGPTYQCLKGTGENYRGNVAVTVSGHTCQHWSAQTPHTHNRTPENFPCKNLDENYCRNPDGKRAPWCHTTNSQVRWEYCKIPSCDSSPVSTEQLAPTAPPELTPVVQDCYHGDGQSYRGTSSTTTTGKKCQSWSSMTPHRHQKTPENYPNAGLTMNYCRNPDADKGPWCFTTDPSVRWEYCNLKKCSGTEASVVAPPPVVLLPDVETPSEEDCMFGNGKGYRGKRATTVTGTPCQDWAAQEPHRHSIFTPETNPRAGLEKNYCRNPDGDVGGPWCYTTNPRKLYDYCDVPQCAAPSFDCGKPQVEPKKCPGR
UniProt P00747, 581-810 limits assumed, species assumed: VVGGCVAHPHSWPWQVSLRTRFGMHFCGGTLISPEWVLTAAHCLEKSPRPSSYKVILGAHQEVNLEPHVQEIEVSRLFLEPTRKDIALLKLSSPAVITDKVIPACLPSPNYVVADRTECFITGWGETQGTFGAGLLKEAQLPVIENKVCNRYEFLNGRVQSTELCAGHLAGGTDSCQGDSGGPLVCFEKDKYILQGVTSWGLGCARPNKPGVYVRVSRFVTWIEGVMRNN

Experiments:
[1] = system: leucemic cells L1210, Lewis lung carcinoma "3LL"; test: Penetration into and death of tumor cells; type: cell-based
plasmin = biological target: T1, plasmin (Homo sapiens, UniProt P00747); test: Prodrug hydrolysis by plasmin; type: biochemical
T1 construct: It is hydrolyzed by trypsin and by plasmin liberating the active drug L-Leu-Adriamycin

trypsin = test: Prodrug hydrolysis by trypsin; type: biochemical

`COc1cccc2c1C(=O)c1c(O)c3c(c(O)c1C2=O)C[C@@](O)(C(=O)CO)C[C@@H]3O[C@H]1C[C@H](NC(=O)[C@H](CC(C)C)NC(=O)[C@H](CCCNC(=N)N)NC(=O)[C@@H]2CCCN2C(=O)[C@H](Cc2ccccc2)NC(=O)[C@H](O)[C@@H](O)[C@H](O)[C@H](O)CO)[C@H](O)[C@H](C)O1` [PHA-L-Phe-L-Pro-L-Arg-L-Leu-Adriamycin] (dGluconoyl-FPRL-{Doxorubicin(3'-N)}) was tested, and the “penetration into tumor cells” value [1] was “behaves vis-a-vis tumoral cells as the prodrug described above”, the “hydrolysis by plasmin liberating L-Leu-Adriamycin” value (plasmin) was “hydrolyzed” and the “hydrolysis by trypsin liberating L-Leu-Adriamycin” value (trypsin) was “hydrolyzed”.
